Test results from article PMC8854734.
These are yes or no findings as the source states them, for the method shown. Binding seen in cells or lysates may run through a third protein. Some entries that bind do so weakly or less than the wild type. One block for each molecule: values may come before it.

Chains of the proteins cited; added tags and fusions are not shown.
UniProt Q92731: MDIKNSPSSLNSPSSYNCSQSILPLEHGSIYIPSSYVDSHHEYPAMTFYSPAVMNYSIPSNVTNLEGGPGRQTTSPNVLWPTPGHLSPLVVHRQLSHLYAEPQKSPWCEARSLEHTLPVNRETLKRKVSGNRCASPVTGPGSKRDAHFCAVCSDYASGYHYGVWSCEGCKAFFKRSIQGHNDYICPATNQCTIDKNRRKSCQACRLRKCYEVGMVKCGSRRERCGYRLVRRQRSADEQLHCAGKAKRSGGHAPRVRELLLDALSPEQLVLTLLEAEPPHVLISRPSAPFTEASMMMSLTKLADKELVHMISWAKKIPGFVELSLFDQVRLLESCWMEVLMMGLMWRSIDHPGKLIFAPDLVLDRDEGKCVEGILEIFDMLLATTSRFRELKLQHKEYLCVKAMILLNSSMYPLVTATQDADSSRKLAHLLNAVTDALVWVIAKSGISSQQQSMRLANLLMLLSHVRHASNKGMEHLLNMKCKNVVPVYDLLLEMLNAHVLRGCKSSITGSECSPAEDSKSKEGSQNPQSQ
UniProt Q15022: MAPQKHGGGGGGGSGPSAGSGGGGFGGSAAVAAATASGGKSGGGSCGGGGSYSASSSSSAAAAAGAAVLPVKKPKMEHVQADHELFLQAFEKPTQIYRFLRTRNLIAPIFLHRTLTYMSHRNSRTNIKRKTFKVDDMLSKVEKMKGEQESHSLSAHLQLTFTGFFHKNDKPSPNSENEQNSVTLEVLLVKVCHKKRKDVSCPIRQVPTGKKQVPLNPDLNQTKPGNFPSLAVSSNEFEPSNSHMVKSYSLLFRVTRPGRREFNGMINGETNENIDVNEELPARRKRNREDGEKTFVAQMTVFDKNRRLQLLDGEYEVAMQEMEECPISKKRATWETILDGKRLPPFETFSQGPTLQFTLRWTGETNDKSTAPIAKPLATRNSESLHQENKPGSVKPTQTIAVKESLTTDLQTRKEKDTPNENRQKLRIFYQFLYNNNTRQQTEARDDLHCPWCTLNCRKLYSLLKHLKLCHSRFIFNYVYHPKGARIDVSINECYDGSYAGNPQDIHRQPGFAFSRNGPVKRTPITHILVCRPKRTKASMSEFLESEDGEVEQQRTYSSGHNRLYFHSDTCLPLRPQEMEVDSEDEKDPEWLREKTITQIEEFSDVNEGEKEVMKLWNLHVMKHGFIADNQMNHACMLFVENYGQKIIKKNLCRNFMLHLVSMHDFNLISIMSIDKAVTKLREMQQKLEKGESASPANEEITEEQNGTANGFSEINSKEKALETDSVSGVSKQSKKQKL
UniProt O75530: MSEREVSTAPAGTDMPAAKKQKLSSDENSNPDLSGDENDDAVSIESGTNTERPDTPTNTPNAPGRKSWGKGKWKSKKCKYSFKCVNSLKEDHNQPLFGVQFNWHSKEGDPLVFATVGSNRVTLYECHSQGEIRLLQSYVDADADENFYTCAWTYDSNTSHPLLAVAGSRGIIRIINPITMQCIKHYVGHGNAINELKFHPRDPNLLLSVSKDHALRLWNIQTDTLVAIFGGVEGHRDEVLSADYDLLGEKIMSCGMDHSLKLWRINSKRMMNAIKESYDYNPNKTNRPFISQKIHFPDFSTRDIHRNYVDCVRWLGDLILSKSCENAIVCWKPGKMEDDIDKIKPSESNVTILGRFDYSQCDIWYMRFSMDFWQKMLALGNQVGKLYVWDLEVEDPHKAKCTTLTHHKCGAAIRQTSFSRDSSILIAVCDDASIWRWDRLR
UniProt Q04206: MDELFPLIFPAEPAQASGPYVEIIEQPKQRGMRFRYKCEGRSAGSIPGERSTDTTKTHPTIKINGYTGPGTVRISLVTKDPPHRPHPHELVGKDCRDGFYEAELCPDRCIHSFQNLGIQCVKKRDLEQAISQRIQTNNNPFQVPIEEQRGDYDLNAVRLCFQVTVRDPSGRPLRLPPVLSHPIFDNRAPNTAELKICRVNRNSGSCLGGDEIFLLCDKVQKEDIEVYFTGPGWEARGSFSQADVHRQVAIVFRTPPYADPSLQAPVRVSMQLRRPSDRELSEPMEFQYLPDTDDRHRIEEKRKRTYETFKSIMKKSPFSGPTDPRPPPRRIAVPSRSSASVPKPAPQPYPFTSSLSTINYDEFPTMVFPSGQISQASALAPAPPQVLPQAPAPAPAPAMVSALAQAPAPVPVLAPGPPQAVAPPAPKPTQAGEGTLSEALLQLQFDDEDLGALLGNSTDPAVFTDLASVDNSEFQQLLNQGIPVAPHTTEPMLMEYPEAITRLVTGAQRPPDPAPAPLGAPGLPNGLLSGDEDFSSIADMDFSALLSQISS

Assays:
[1] = target: Estrogen receptor beta (human) (UniProt Q92731); assay: co-IP; nuclear lysates of MDA-MB-231-ERβ cells treated with or without dox and vehicle or E2; 500 µg protein, immunoprecipitation overnight at 4 °C with an ERβ antibody or a p65 antibody, Protein G Dynabeads, three washes with NETN buffer, western blotting
[2] = target: Estrogen receptor beta (human) (UniProt Q92731); assay: proximity ligation; proximity-based ligation assay, named only in the discussion; cells and conditions not told
[3] = target: Estrogen receptor beta (in 293 T cells) (UniProt Q92731); assay: co-IP; 293 T cells (Supplemental Fig. 3c); conditions not given

- binding [1]: binds
Molecule: SUZ12 (from UniProt Q15022 1-739)

- binding [1]: binds
Molecule: EED (from UniProt O75530 1-441)

- binding [3]: no binding
B2: RELB (in 293 T cells) (protein, UniProt Q01201 1-579)
chain: MLRSGPASGPSVPTGRAMPSRRVARPPAAPELGALGSPDLSSLSLAVSRSTDELEIIDEYIKENGFGLDGGQPGPGEGLPRLVSRGAASLSTVTLGPVAPPATPPPWGCPLGRLVSPAPGPGPQPHLVITEQPKQRGMRFRYECEGRSAGSILGESSTEASKTLPAIELRDCGGLREVEVTACLVWKDWPHRVHPHSLVGKDCTDGICRVRLRPHVSPRHSFNNLGIQCVRKKEIEAAIERKIQLGIDPYNAGSLKNHQEVDMNVVRICFQASYRDQQGQMRRMDPVLSEPVYDKKSTNTSELRICRINKESGPCTGGEELYLLCDKVQKEDISVVFSRASWEGRADFSQADVHRQIAIVFKTPPYEDLEIVEPVTVNVFLQRLTDGVCSEPLPFTYLPRDHDSYGVDKKRKRGMPDVLGELNSSDPHGIESKRRKKKPAILDHFLPNHGSGPFLPPSALLPDPDFFSGTVSLPGLEPPGGPDLLDDGFAYDPTAPTLFTMLDLLPPAPPHASAVVCSGGAGAVVGETPGPEPLTLDSYQAPGPGDGGTASLVGSNMFPNHYREAAFGGGLLSPGPEAT

Second part, the molecule before the results:

Molecule: NFκB/RELA (p65) (from UniProt Q04206 1-551)
- binding [2]: binds
- binding [1]: binds

Molecule: NFκB/RELA (p65) (in 293 T cells) (from UniProt Q04206 1-551)
- binding [3]: binds

B1: RELB (protein, UniProt Q01201 1-579)
chain: B2 chain
- binding [1]: no binding
